{"source": "PubChem BioAssay AID1508588 – Peter MacCallum Cancer Centre – 2020", "purpose": "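Which gene losses make BRAF-mutant melanoma cells more responsive to vemurafenib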 (primary screen)", "cells": "human WM266.4 melanoma cells (BRAF V600 mutant)", "reagent": "siRNA pool against human genes, 40 nM", "duration": "96 h from transfection to read-out", "treatment": "vemurafenib 300 nM (about IC25), added 48 h after transfection, for 48 h; comparison arm got DMSO vehicle only", "measured": "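Ratios to non-targeting siRNA for cell gain, counted as DAPI nuclei after minus before drug and averaged over two replicates, and for absorbance-read medium lactate per cell; both binned into fold-change classes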", "scale": "cell gain with vemurafenib: higher = more cell gain than with non-targeting siRNA; lactate per cell with vemurafenib: higher = more lactate made per cell", "hit rule": "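a knock-down counts as enhancing when its fold-change classes with vehicle and with vemurafenib, taken together, show a stronger drug effect on cell gain or lactate per cell; exact class pairs not stated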", "meaning of the calls": "active = enhances vemurafenib effect; inactive = no enhancement seen", "note": "In all, the deposit lists about 18,000 reagents; this is a part drawn at random. Of all reagents, 790 (4.4%) were called active. 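Calls rest on a combination of fold-change classes in drug and vehicle arms, not all shown here.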"}
{"gene": "ATG9A (autophagy related 9A)", "cell gain with vemurafenib": 0.3, "lactate per cell with vemurafenib": 1.65, "Call": "inactive"}
{"gene": "H4C6 (H4 clustered histone 6)", "cell gain with vemurafenib": 0.22, "lactate per cell with vemurafenib": 3.14, "Call": "inactive"}
{"gene": "BST2 (bone marrow stromal cell antigen 2)", "cell gain with vemurafenib": 0.3, "lactate per cell with vemurafenib": 2.36, "Call": "inactive"}
{"gene": "UTP14C (UTP14C small subunit processome component)", "cell gain with vemurafenib": 0.69, "lactate per cell with vemurafenib": 0.77, "Call": "inactive"}
{"gene": "ST3GAL6 (ST3 beta-galactoside alpha-2,3-sialyltransferase 6)", "cell gain with vemurafenib": 0.35, "lactate per cell with vemurafenib": 2.58, "Call": "inactive"}
{"gene": "QARS1 (glutaminyl-tRNA synthetase 1)", "cell gain with vemurafenib": 1.34, "lactate per cell with vemurafenib": 0.12, "Call": "inactive"}
{"gene": "MBOAT1 (membrane bound glycerophospholipid O-acyltransferase 1)", "cell gain with vemurafenib": 0.57, "lactate per cell with vemurafenib": 1.45, "Call": "inactive"}
{"gene": "RNF141 (ring finger protein 141)", "cell gain with vemurafenib": 0.94, "lactate per cell with vemurafenib": 0.54, "Call": "inactive"}
{"gene": "TSTD2 (thiosulfate sulfurtransferase like domain containing 2)", "cell gain with vemurafenib": 0.7, "lactate per cell with vemurafenib": 1.5, "Call": "inactive"}
{"gene": "TCEAL6 (transcription elongation factor A like 6)", "cell gain with vemurafenib": 0.58, "lactate per cell with vemurafenib": 1.35, "Call": "inactive"}
{"gene": "RIMBP2 (RIMS binding protein 2)", "cell gain with vemurafenib": 1.07, "lactate per cell with vemurafenib": 1.08, "Call": "inactive"}
{"gene": "ZSCAN5A (zinc finger and SCAN domain containing 5A)", "cell gain with vemurafenib": 0.62, "lactate per cell with vemurafenib": 0.91, "Call": "inactive"}
{"gene": "ANKRD55 (ankyrin repeat domain 55)", "cell gain with vemurafenib": 0.84, "lactate per cell with vemurafenib": 0.8, "Call": "inactive"}
{"gene": "DDX55 (DEAD-box helicase 55)", "cell gain with vemurafenib": 0.25, "lactate per cell with vemurafenib": 2, "Call": "inactive"}
{"gene": "OR4K14 (olfactory receptor family 4 subfamily K member 14)", "cell gain with vemurafenib": 0.25, "lactate per cell with vemurafenib": 0.85, "Call": "inactive"}
{"gene": "RFXAP (regulatory factor X associated protein)", "cell gain with vemurafenib": 0.29, "lactate per cell with vemurafenib": 1.42, "Call": "inactive"}
{"gene": "KCNK7 (potassium two pore domain channel subfamily K member 7)", "cell gain with vemurafenib": 0.88, "lactate per cell with vemurafenib": 1.15, "Call": "inactive"}
{"gene": "OTULIN (OTU deubiquitinase with linear linkage specificity)", "cell gain with vemurafenib": 0.63, "lactate per cell with vemurafenib": 0.94, "Call": "inactive"}
{"gene": "KIR3DL1", "cell gain with vemurafenib": 0.64, "lactate per cell with vemurafenib": 0.66, "Call": "inactive"}
{"gene": "USP4 (ubiquitin specific peptidase 4)", "cell gain with vemurafenib": 0.51, "lactate per cell with vemurafenib": 0.88, "Call": "inactive"}
{"gene": "DDX5 (DEAD-box helicase 5)", "cell gain with vemurafenib": 0.17, "lactate per cell with vemurafenib": 1.08, "Call": "inactive"}
{"gene": "PIM2 (Pim-2 proto-oncogene, serine/threonine kinase)", "cell gain with vemurafenib": 0.16, "lactate per cell with vemurafenib": 2.17, "Call": "inactive"}
{"gene": "OR4K13 (olfactory receptor family 4 subfamily K member 13)", "cell gain with vemurafenib": 0.77, "lactate per cell with vemurafenib": 1.2, "Call": "inactive"}
{"gene": "EFCAB14 (EF-hand calcium binding domain 14)", "cell gain with vemurafenib": 0.11, "lactate per cell with vemurafenib": 1.28, "Call": "inactive"}
{"gene": "ARMCX2 (armadillo repeat containing X-linked 2)", "cell gain with vemurafenib": 1.09, "lactate per cell with vemurafenib": 0.61, "Call": "inactive"}
{"gene": "QTRT2 (queuine tRNA-ribosyltransferase accessory subunit 2)", "cell gain with vemurafenib": 0.4, "lactate per cell with vemurafenib": 0.89, "Call": "inactive"}
{"gene": "DUSP16 (dual specificity phosphatase 16)", "cell gain with vemurafenib": 0.72, "lactate per cell with vemurafenib": 0.84, "Call": "inactive"}

4 successive entries from above, for reference:
{"gene": "ATG9A (autophagy related 9A)", "cell gain with vemurafenib": 0.3, "lactate per cell with vemurafenib": 1.65, "Call": "inactive"}
{"gene": "H4C6 (H4 clustered histone 6)", "cell gain with vemurafenib": 0.22, "lactate per cell with vemurafenib": 3.14, "Call": "inactive"}
{"gene": "BST2 (bone marrow stromal cell antigen 2)", "cell gain with vemurafenib": 0.3, "lactate per cell with vemurafenib": 2.36, "Call": "inactive"}
{"gene": "UTP14C (UTP14C small subunit processome component)", "cell gain with vemurafenib": 0.69, "lactate per cell with vemurafenib": 0.77, "Call": "inactive"}
